Among the data in article PMC9983901 are binding values, retold here.

Amino acid sequences for entries named in this document (tags omitted). A change or cut given only in a name is not applied to a line headed by its entry.
UniProt Q27497: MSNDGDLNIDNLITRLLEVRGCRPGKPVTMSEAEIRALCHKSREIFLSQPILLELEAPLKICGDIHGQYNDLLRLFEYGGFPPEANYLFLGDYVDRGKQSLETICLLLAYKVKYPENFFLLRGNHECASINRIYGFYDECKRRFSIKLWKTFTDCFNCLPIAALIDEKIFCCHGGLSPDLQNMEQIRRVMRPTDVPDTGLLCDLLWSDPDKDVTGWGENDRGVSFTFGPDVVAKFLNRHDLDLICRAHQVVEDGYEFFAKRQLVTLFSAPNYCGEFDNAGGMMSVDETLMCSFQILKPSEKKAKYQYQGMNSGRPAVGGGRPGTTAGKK
UniProt P48727: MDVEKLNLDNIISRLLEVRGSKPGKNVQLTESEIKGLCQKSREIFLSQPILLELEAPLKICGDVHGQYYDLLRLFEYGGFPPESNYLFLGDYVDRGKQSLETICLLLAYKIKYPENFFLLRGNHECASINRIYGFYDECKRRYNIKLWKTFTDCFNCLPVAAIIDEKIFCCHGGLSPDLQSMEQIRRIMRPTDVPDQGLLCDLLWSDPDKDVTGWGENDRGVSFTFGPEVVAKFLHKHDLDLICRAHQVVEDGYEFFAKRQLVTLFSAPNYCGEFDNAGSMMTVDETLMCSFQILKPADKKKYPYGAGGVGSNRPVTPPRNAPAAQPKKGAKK
UniProt Q95PZ1: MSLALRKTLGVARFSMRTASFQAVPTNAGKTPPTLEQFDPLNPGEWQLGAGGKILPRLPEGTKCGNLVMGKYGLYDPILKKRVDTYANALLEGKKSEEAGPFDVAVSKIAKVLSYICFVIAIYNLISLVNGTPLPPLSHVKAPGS

The labels stand for the following.
T1: GRAS-1::GFP (C. elegans) (UniProt Q93654)
T1 sequence: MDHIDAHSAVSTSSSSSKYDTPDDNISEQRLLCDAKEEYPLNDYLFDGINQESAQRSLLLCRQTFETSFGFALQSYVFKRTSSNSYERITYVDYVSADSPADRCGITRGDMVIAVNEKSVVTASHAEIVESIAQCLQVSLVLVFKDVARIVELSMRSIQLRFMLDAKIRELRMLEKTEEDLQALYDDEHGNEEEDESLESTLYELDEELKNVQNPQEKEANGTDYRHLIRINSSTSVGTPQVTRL

B1: PLK-1 (protein, UniProt P34331 1-648)
chain: MNRLPNIAKPPQKSNQRKEKAPPEVPALIADKDRGTYYEKGRFLGKGGFAHCYELTNRATREVVAGKVVPKSMLVKQYQRDKMTQEVQIHRELGHINIVKLFNFFEDNLNVYITLELCARRSLMELHKRRKAVTEPEARYFTHQIVDGVLYLHDLNIIHRDMKLGNLFLNDDLVVKIGDFGLATTVNGDERKKTLCGTPNYIAPEVLNKAGHSFEVDIWAVGCILYILLFGQPPFESKSLEETYSRIRHNNYTIPSIATQPAASLIRKMLDPEPTRRPTAKQVQRDGFFKSGFMPTRLPVSCLTMVPKFGGHETSMMEENVAPRGVDARSQRPLNGRAGLSALPQHIVSNNADRERAQQQAAEATFREPEDAYLSQLFHQVAVLLEQRIPGLEEEEAALDGYQSPECLPVFWISKWVDYSDKYGIGYQLCDNSVGVLFNDNSRIMLDQAGNELTYIEKSNKEHYFSMHSGEMPGLLNKKVTLLKYFRSYMNDHLVKAGEGSEQRAGDDLARLPTLRVWFRTKSAIVLHLSNGTVQINFFNDHVKMMMCPLMQAVTFIDQNKRMLTYKLNNLQRNGCPEKFLHRLKYAKTMIERLMSDANVVSQNPARQPDMPRSMAAARSASAGSRGPNQAASHLPQSASGSNIHPRR
B2: α-importin nuclear transport IMA-2 protein (protein, UniProt P91276 1-531)
chain: MTLTETSLSHNAEEGKDEGGRLQQYKNLTKHEELRRRRTECSVEIRKQKGADMMMKRRNIVDVDEGGNSESELEEPEKISHQQSSTRLSNDEIRAILSNNPSEDDMVRCFESLRKSLSKTKNPPIDEVIHCGLLQALVQALSVENERVQYEAAWALTNIVSGSTEQTIAAVEAGVTIPLIHLSVHQSAQISEQALWAVANIAGDSSQLRDYVIKCHGVEALMHLMEKVDQLGDSHVRTIAWAFSNMCRHKNPHAPLEVLRVLSKGLVKLVQHTDRQVRQDACWAVSYLTDGPDEQIELARESGVLPHVVAFFKEAENLVAPALRTLGNVATGNDSLTQAVIDLGSLDEILPLMEKTRSSSIVKECCWLVSNIIAGTQKQIQAVLDANLLPVLINVLKSGDHKCQFEASWALSNLAQGGTNRQVVAMLEDNVVPALCQALLQTNTDMLNNTLETLYTLMLTVQNGYPHKVDILHDQVEENGGLDSLERLQESQSEQIYTQAYRIITQFFTDDDAGEKESHENADPQDNKWSF
B3: LMN-1 (protein, UniProt Q21443 1-566)
chain: MSSRKGTRSSRIVTLERSANSSLSNNGGGDDSFGSTLLETSRLQEKDHLTSLNSRLATYIDKVRQLEQENNRLQVQIRDIEVVEKKEKSNLADRFEAEKARLRRALDSAQDELAKYRIEYDAAKVEVKKLKPQVEKLERELAGAEEQALHAQSIADQSQAKQKTLQARNDKLVVENDDLKKQNITLRDTVEGLKKAVEDETLLRTAANNKIKALEEDLAFALQQHKGELEEVRHKRQVDMTTYAKQINDEYQSKLQDQIEEMRAQFKNNLHQNKTAFEDAYKNKLNAARERQEEAVSEAIHLRARVRDLETSSSGNASLIERLRSELDTLKRSFQEKLDDKDARIAELNQEIERMMSEFHDLLDVKIQLDAELKTYQALLEGEEERLNLTQEAPQNTSVHHVSFSSGGASAQRGVKRRRVVDVNGEDQDIDYLNRRSKLNKETVGPVGIDEVDEEGKWVRVANNSEEEQSIGGYKLVVKAGNKEASFQFSSRMKLAPHASATVWSADAGAVHHPPEVYVMKKQQWPIGDNPSARLEDSEGDTVSSITVEFSESSDPSDPADRCSIM
B4: IMA-3 (protein, UniProt Q19969 1-514)
chain: MSSNRQAYYKNNAKEQIGKEKRNEEVVSIRKDKREEAISKRRNINTQIEDDSETSTTPPGPFDANLLRLTVAAAQSSDPAEQLTAVQQARKMLSTDRNPPIDDLIGSGILPVLVQCLSSTDPNLQFEAAWALTNIASGTSEQTQAVVNAGAVPLFLQLLSCGNLNVCEQSVWALGNIIGDGPHFRDYCLELGILQPLLQFINPEIPIGFLRNVTWVIVNLCRCKDPAPSPAVVRTILPALSLLIHHQDTNILIDTVWALSYLTDGGNEHIQMVIEAQVVTHLVPLLGHVDVKVQTAALRAVGNIVTGTDEQTQLVLDSGVLRFMPGLLAHYKEKINKEAVWFVSNITAGNQQQVQDVFDAGIMPMIIHLLDRGDFPTQKEAAWAISNVTISGRPNQVEQMVKLGVLRPFCAMLSCTDSQIIQVVLDGINNILKMAGEAAEQVTSEIEECGGLDKIENLQNHENEDIYKLAFEIIDNFFSSDDETGNVEGAQSSAFGGDVPPVPDAPNGGWNFGK
B5: GRP-1 (protein, UniProt P34512 1-393)
chain: MSSRYSERNGLSETEKMTLPKVRKRKAQLVDEIEALKNEVREVDEELDQVYYTHPKSKEYHKIVVNGRKKFNQDPWKALDWLASRNVVAKDPQALALWMKAGEGLSKSAIGEILGDNRPFALETLDRFTKEHKLHDVPIVPALRQYLFSFRLPGESQKINRILEKFAEVYANQNPSYGNADQAHTVAYSCIMVNTLLHNPNVKDKPSLEKYIEMNEQLLEKGAITIEQLTEVYESVSVTQFKIPDEVSTSGKGTVNDILLHAEREGWLFKQSSNPLFSGALSWKKRWFVLSENCLYYFDQMTDKEPKGIITLANVGIRKVEAPSRPFMFEIFSLSDGQIKACKTEQDGRLVEGRHSIYKICAVNDEDMRSWINAISRMMAPQQHLLARPKSTH
B6: separase (protein, UniProt G5ED39 1-1262)
chain: MKITNKSVDKQHIEKLDELRKNVSCTVIGFAEQTAELQQEISELFIAEFGVNGPIDMNSLSKLARITSYYASSEYFQGLAKYQRTACKMFITWQTLRKEAMECRSKDREIFASIPAKLCFFYFYNGELCRAVVCLLDYIDLSDDTLAKEAALRWLMFLGETELIEKKLKTWKMDKSSKDMFSATEFAMNYLKKSEYRVEMLEKLMKLRDKVKSDPTRSFSRYELASYVSWLCSTLSNVPVGSALRECEFPDRVSHIQEAALKSDSLVRNRIPGLASSQFDNSVNASIWPFLDGHQEDSNYYVHIGSTIAWHFEMRRECALVNVTTAQTRDSMSAMILNLRVALKSASFFRVLQTTNTLAYYSSIIEEAGSEKNAKLMRVSCVNLLSSNPIIVRCSTPKETGATSRAHTPMAGSSVSEKQNTMRPDLADLLGDLELLDEQSFHPITRSCVCNVCTIYPLHSSFAAEYMMSYAIHSDFSQLSIKHFNDEFARIRERGMSSQVLMHRDSSVRPRPNIIQNEIFGMCVIRWLTKKLDSKESADEDTMEIFNNALKIVRYLQQRTTDMILAVTQLGRQLEFPMECNYSWMRPTIRKPRVKATIDCAVDILRAVSPFGRRPKVEKLEKNLQPFDKERFEKVRLAMRNEMNHYGHILYREWRCRLFAYVGRTSRDPWEAAYAWAESTQIGARNAVQSRLEKCKRGLVTMSGHDRFKTCVQSMPDEMTLVQIAMADDKTIYLVKLHADRDPIIMPLAHYSQAVELMDKFTFLLDEDEMIAKYPGDITPEEFWKRRKIVDGRMMTFVDEVQKHFLGVAASLLMPSGQLGPKAAELAIKIHKLSKGGLLLGEAKEMVYQSKLMDAKSWEALILRFCEMRTTDEKFKSFLPLMHRNSVEVMNQDDSIVTEKKYTYLVICPHLSQFCWERLPIFDEYPYVGRQVSIHSTFSQLEAMKSQEKQIPLQIDVQNAYYILDPDNNLGETQKRMVEYINKFNWEGTVGSAPKSNEISAALSQRDAFFFIGHGSGSSVMPRSVLKQSTCNAISLLMGCGSVRTIPQALGFDGKTAILDYAMAKCPLIVGCLWTVTDGEIDRFLIRMIDDCFEDSKSLTGIDKLRQLSEAMHEARSKARLKYLTGAAVVMYGLPVVAKQTTPFVEKDQRNLPQTPKTSARTSMRMETVPKTPKQEFVTSKSVPMTPIFSNNENKSPSRARMPSRVLKTPRQVKTFQEEDDEAPKRSTTRQLKPLVAPPIPATPTTRTTRSSARTPSRSRNL

These are yes or no findings as the source states them, for the method shown. Binding seen in cells or lysates may run through a third protein. Here binding means that the protein was enriched with, or labelled near, the bait; the list need not be complete. For some of these results: A no says only that the protein was not detected with the bait. Where a sequence is shown, tags or fusion partners need not be part of it.

One assay concerns the target T1, GRAS-1::GFP (C. elegans). Put plainly: affinity purification with mass spectrometry; anti-GFP immunoprecipitation from homogenised 24h post-L4 worms expressing GRAS-1::GFP; four independent experiments against 4 controls; hits above 1.5-fold change.
Turning to “FKB-6 (C. elegans (endogenous in whole worms))”, the binding result is recorded as “no binding”.

With GSP-1 (from UniProt Q27497 1-329), the binding result is given as “binds”.

GSP-2 (from UniProt P48727 1-333): the binding result was “binds”.

As to “KASH protein KDP-1 (from UniProt Q95PZ1)”, the binding entry is “binds”.

For the molecule “NPP-3 (C. elegans (endogenous in whole worms))”, the binding entry is “binds”.

On to “NPP-13 (C. elegans (endogenous in whole worms))”, for which the binding entry is on record as “binds”.

On to “motor protein kinesin KLP-17 (C. elegans (endogenous in whole worms))”, for which the binding result is recorded as “binds”.

In a further assay the target is T1, GRAS-1::GFP (C. elegans). The description is as above. The source holds these as a separate data set.
For the molecule B1, the binding entry is given as “binds”.

With B2, the binding result is on record as “binds”.

With B3, the binding result was “binds”.

Turning to B4, the binding result is given as “binds”.

Consider B5, for which the binding entry is “binds”.

Regarding B6, the binding result is “binds”.
